No constants are given. Whether binding was seen depends on the method and setting. In cells and extracts the contact can be indirect. These calls come from enrichment with a bait or labelling near it, and not all partners need be listed.
Molecular target: T1, OLIG2 (mouse (endogenous in cultured mouse OL lineage cells)) (UniProt Q9EQW6)
T1 sequence: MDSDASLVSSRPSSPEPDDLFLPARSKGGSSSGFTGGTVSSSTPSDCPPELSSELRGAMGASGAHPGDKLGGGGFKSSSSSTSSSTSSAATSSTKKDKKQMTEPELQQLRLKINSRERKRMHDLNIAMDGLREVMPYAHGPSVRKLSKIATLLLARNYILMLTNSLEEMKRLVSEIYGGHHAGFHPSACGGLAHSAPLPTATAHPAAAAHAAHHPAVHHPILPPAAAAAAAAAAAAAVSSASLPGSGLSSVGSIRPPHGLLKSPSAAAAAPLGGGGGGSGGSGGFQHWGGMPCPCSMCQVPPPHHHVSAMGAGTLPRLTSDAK
Experiment: affinity purification with mass spectrometry; RIME (rapid immunoprecipitation mass spectrometry of endogenous protein): endogenous OLIG2 precipitated with rabbit anti-OLIG2 (AB9610, Millipore) from 1 x 10^7 OL-differentiated mouse NSCs; rabbit pre-immune IgG as control; three replicates per group; on-bead trypsin digestion

Sequences of proteins named here, by UniProt entry; tags and fusion partners are left off.
UniProt Q6ZPV2: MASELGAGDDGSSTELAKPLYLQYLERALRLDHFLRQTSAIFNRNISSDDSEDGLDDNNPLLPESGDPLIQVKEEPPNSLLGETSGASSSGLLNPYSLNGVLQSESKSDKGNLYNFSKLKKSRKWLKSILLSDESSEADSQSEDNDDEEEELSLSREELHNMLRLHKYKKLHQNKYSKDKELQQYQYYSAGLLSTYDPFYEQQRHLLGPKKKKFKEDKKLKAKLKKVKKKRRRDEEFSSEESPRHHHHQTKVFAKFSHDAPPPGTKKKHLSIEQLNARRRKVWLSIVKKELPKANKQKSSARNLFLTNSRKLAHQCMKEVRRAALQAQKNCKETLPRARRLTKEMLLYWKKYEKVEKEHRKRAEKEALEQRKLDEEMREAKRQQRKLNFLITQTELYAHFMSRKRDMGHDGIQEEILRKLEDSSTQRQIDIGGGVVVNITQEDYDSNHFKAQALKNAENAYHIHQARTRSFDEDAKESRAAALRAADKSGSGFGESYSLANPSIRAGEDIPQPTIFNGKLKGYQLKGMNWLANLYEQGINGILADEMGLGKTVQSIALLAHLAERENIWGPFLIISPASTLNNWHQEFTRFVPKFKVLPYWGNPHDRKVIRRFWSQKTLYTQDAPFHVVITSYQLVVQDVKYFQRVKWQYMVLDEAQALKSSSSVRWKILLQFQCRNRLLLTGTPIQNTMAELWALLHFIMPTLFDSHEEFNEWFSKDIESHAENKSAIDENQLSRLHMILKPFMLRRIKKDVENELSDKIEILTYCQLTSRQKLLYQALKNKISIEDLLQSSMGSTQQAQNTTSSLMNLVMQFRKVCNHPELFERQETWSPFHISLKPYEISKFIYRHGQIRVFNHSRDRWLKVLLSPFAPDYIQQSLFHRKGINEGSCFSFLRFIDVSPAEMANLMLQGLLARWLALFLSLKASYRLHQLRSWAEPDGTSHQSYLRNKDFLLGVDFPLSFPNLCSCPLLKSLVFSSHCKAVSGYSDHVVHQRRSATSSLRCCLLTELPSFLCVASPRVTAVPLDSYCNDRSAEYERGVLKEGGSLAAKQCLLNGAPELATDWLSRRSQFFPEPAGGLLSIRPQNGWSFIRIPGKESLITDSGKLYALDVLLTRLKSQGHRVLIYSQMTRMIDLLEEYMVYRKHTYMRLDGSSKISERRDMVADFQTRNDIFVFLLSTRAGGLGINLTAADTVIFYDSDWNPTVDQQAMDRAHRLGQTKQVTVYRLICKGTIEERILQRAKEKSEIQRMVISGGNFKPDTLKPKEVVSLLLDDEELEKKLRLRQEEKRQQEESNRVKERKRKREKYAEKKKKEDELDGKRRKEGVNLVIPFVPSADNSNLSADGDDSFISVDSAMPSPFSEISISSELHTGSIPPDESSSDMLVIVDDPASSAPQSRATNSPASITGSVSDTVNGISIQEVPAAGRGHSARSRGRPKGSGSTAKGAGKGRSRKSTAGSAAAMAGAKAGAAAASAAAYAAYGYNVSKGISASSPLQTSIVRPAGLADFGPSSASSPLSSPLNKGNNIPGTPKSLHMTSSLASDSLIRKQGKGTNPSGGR

- binding: binds
Substance: INO80 (from UniProt Q6ZPV2 1-1559)

From paper PMC12012327
